Our source for the binding values is publication PMC6753146.

Amino acid sequences for entries named in this document (tags omitted).
UniProt Q567U6: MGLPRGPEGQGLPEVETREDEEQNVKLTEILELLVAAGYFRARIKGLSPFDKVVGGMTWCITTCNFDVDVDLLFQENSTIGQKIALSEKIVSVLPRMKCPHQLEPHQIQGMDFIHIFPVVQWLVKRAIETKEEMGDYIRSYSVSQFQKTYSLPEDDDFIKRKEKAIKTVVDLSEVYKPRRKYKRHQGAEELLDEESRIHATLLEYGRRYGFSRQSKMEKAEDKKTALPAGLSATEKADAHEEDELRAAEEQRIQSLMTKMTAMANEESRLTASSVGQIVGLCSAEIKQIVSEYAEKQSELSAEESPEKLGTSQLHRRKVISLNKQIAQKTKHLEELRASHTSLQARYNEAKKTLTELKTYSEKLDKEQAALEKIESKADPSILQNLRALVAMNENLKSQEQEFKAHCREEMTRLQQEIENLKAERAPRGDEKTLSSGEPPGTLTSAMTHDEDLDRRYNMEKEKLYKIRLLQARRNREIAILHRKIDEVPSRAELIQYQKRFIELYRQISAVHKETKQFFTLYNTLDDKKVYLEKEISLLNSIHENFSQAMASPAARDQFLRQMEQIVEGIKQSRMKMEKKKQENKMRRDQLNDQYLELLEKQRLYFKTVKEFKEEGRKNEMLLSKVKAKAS
UniProt O60826: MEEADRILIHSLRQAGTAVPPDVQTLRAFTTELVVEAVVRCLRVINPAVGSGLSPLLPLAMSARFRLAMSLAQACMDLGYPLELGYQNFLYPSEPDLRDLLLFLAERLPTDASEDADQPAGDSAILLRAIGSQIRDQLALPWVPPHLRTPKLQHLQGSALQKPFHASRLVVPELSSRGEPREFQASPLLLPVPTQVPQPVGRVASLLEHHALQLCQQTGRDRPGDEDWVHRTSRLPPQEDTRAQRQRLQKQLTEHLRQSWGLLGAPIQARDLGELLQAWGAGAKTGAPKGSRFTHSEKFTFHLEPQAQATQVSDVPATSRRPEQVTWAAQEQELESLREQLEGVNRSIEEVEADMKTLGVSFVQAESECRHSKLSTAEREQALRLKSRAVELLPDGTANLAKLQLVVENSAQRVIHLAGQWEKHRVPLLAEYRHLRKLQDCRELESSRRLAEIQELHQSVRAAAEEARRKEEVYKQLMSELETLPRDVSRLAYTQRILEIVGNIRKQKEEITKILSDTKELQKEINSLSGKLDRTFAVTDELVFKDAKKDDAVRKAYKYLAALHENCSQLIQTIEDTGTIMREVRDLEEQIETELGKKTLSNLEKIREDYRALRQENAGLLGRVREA

Assay [1] concerns the target HA-tagged CCDC93 (UniProt Q567U6). Briefly: affinity purification with mass spectrometry; HA-tagged bait captured on HA-resin from Triton-X lysates of reconstituted knockout HeLa cells; washes with 350 mM NaCl; elution with HA peptide (1 mg/mL); LC/MS-MS; empty vector as control.
In assay [2] the target is HA-tagged VPS26C (UniProt O14972). The assay is described as above.

No constants are given. Whether binding was seen depends on the method and setting. In cells and extracts the contact can be indirect. These calls come from enrichment with a bait or labelling near it, and not all partners need be listed.

As for CCDC22 (from UniProt O60826 1-627), in assay [1], the binding entry is recorded as “binds”. Regarding FAM45A (from UniProt Q8TCE6 1-357), the binding entry in assay [2] is “binds”.
